Among the data in article PMC4404054 are binding values, retold here.

Sequences of proteins named here, by UniProt entry; tags and fusion partners are left off. Residues count along the entry.
UniProt P35968, residues 20-1356: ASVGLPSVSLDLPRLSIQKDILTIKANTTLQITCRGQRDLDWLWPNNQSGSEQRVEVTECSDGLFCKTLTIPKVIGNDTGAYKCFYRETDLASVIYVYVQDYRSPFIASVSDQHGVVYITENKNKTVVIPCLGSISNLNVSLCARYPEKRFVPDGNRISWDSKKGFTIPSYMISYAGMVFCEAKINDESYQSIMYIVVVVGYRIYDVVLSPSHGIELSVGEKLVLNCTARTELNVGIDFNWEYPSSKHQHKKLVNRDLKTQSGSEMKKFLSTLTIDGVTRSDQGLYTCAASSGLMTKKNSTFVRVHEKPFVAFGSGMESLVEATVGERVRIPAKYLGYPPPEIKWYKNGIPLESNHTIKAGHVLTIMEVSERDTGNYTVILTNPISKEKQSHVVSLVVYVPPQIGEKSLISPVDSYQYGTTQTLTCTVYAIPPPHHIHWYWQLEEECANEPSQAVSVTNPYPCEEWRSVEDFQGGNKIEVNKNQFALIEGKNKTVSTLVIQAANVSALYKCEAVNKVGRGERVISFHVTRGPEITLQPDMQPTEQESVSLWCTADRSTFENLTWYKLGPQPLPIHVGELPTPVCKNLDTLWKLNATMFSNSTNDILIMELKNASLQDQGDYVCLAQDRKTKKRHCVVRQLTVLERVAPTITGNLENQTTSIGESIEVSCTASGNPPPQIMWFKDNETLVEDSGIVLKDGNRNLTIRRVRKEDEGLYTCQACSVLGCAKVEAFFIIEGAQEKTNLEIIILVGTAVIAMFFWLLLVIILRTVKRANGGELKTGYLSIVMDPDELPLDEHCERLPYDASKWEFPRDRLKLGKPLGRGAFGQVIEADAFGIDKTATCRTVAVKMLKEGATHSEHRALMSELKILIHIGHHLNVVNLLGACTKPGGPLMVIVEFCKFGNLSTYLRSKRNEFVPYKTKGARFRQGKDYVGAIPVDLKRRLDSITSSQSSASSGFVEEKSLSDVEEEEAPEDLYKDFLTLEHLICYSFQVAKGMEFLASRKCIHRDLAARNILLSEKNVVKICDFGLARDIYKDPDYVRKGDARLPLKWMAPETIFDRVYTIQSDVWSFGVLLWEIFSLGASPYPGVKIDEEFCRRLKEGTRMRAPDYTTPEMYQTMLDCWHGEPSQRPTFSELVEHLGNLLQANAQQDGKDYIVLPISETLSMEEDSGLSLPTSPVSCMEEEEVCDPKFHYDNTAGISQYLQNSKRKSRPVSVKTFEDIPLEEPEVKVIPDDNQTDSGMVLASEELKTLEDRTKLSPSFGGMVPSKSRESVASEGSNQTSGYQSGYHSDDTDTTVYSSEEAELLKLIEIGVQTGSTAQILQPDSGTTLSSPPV
UniProt P17948, residues 27-1338: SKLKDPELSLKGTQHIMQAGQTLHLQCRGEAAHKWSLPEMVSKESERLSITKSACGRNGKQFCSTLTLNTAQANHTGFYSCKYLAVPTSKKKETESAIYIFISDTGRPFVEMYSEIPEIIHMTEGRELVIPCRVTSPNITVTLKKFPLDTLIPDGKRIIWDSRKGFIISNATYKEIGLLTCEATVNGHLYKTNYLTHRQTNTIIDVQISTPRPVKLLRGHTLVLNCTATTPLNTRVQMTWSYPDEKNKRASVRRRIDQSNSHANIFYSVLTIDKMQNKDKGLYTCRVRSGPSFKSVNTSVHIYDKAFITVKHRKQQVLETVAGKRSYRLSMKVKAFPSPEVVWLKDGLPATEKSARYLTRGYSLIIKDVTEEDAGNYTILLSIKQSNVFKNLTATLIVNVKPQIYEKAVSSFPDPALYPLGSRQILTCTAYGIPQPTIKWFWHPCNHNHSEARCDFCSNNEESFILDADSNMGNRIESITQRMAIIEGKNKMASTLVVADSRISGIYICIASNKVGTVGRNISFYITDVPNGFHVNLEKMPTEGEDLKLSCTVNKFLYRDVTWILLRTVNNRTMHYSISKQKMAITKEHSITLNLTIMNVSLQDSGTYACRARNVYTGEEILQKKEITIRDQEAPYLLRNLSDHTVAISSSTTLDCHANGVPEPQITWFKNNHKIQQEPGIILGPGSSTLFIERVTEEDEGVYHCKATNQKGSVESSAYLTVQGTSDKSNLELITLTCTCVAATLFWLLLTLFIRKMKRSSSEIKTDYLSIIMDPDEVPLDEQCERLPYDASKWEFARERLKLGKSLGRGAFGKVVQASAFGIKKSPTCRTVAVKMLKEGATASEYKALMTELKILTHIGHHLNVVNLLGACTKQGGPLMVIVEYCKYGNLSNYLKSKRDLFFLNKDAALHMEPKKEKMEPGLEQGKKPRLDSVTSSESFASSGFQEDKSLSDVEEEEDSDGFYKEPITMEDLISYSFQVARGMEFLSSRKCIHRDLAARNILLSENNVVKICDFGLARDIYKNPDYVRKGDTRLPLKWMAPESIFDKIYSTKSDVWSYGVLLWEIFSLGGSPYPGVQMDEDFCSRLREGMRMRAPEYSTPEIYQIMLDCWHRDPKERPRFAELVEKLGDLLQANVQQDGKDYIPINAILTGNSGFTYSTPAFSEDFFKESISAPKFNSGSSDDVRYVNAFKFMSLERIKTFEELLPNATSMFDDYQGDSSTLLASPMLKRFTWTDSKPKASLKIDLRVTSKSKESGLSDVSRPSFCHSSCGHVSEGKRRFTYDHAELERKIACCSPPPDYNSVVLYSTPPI
UniProt Q12923: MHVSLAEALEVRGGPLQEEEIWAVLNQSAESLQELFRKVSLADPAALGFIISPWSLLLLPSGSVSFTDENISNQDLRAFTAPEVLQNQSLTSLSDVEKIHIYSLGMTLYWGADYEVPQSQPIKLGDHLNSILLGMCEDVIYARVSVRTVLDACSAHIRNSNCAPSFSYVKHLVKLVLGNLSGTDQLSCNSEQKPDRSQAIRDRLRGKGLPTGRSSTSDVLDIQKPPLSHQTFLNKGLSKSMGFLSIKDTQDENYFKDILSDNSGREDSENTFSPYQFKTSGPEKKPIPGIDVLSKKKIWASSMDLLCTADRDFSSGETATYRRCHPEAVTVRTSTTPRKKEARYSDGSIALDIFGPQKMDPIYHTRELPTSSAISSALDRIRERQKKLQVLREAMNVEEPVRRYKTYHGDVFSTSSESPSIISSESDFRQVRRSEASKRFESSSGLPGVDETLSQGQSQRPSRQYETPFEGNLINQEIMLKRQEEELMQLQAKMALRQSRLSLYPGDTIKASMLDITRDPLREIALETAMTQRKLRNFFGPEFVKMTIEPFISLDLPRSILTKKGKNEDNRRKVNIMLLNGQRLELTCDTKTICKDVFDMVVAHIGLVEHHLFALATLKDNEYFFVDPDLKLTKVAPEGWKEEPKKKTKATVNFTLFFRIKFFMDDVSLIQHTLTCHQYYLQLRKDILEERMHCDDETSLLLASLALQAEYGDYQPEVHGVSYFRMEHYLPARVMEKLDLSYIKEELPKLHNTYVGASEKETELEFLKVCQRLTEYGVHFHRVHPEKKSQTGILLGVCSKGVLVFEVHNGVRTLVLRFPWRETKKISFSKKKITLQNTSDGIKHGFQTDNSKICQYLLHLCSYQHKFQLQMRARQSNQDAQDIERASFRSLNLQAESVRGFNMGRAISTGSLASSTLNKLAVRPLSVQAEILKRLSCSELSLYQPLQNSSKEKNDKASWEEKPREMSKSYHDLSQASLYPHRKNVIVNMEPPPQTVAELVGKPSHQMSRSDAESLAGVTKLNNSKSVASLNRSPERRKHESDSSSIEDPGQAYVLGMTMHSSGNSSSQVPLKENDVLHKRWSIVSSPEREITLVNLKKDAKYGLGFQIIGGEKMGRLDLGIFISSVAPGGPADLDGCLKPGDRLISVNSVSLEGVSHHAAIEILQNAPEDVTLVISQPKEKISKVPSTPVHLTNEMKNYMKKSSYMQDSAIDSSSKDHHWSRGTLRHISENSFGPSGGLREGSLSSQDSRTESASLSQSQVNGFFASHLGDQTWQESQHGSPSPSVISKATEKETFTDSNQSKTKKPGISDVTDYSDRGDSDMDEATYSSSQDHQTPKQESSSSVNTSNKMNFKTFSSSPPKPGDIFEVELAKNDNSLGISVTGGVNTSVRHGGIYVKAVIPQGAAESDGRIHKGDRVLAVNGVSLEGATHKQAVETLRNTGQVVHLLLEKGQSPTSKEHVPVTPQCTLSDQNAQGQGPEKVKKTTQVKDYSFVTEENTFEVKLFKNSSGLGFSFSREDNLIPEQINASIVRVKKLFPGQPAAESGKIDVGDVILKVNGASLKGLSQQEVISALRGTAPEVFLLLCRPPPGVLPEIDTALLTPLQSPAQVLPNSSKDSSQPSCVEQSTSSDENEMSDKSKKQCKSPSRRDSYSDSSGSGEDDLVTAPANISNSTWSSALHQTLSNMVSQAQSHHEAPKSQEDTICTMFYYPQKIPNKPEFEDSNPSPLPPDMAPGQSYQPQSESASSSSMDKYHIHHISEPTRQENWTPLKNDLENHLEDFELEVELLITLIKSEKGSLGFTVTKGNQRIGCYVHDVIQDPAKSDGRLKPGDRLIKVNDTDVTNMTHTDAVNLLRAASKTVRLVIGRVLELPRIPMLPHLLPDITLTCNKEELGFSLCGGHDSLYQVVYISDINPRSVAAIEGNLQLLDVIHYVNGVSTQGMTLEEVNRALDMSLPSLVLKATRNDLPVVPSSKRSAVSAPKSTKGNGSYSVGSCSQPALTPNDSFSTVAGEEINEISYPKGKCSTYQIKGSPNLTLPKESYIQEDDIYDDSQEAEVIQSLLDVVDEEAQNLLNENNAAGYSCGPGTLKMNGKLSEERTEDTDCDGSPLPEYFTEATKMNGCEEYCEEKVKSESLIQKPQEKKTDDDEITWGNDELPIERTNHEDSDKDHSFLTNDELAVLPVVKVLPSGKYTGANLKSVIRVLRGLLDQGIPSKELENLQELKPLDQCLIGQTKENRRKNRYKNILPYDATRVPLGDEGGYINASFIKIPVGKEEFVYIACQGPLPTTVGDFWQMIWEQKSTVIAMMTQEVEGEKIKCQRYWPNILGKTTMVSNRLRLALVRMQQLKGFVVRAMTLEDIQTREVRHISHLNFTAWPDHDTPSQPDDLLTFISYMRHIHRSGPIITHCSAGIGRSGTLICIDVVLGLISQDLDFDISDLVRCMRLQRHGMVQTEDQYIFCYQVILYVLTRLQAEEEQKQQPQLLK

Residue numbers refer to the chain shown, from its start. Results are given in words; binding and its absence hold for the method and conditions named. In cells and extracts the contact can be indirect. Some results given as binding are weak or reduced against the parent protein; the word gives no strength. For some assays here: Tags and fused reporters may be left off the sequences shown.

For test [1], the target named is T1, FLAG-Necl-4 (UniProt Q8R464).
T1 sequence: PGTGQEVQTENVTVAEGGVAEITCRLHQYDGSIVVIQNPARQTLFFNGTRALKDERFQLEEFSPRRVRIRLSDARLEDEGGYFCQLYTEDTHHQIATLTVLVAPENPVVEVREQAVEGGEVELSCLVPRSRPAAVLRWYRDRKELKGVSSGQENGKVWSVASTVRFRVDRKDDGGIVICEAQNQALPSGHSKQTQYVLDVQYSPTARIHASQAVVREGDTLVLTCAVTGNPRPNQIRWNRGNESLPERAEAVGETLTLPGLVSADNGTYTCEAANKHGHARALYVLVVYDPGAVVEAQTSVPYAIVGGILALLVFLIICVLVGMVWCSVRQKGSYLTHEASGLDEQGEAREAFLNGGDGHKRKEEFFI
Kind of test: co-IP; HEK293 cells co-transfected with FLAG-tagged Necl-4 (or Necl-4-ΔCP, Necl-4-ΔEC) and VEGFR1 or VEGFR2; lysates precipitated with anti-FLAG mAb (IgG as control), Western blotting.

The target in test [2] is endogenous VEGFR2 (human (endogenous in HUVECs)) (UniProt P35968). Nature of the test: co-IP; data not shown; PTPN13 co-immunoprecipitated with VEGFR2, sparse versus confluent conditions.
Test [3] shares this target. Nature of the test: co-IP; lysates of HUVECs cultured under sparse (25% confluence) or confluent (100% confluence) conditions; precipitated with anti-VEGFR2 pAb (IgG as control), Western blotting.

As for “VEGF receptor (VEGFR) 1 (from UniProt P17948 27-1338)”, in test [1], the binding entry is listed as “binds”.
Take “VEGFR2 (transfected) (from UniProt P35968 20-1356) (receptor)”: the binding entry in test [1] is reported as “binds”.
“protein-tyrosine phosphatase, non-receptor type 13 (PTPN13) (from UniProt Q12923 1-2485) (enzyme)”: the binding result in test [2] is listed as “binds”.

B1: vascular endothelial cadherin (VE-cadherin) (protein, UniProt P33151 48-784)
chain: DWIWNQMHIDEEKNTSLPHHVGKIKSSVSRKNAKYLLKGEYVGKVFRVDAETGDVFAIERLDRENISEYHLTAVIVDKDTGENLETPSSFTIKVHDVNDNWPVFTHRLFNASVPESSAVGTSVISVTAVDADDPTVGDHASVMYQILKGKEYFAIDNSGRIITITKSLDREKQARYEIVVEARDAQGLRGDSGTATVLVTLQDINDNFPFFTQTKYTFVVPEDTRVGTSVGSLFVEDPDEPQNRMTKYSILRGDYQDAFTIETNPAHNEGIIKPMKPLDYEYIQQYSFIVEATDPTIDLRYMSPPAGNRAQVIINITDVDEPPIFQQPFYHFQLKENQKKPLIGTVLAMDPDAARHSIGYSIRRTSDKGQFFRVTKKGDIYNEKELDREVYPWYNLTVEAKELDSTGTPTGKESIVQVHIEVLDENDNAPEFAKPYQPKVCENAVHGQLVLQISAIDKDITPRNVKFKFILNTENNFTLTDNHDNTANITVKYGQFDREHTKVHFLPVVISDNGMPSRTGTSTLTVAVCKCNEQGEFTFCEDMAAQVGVSIQAVVAILLCILTITVITLLIFLRRRLRKQARAHGKSVPEIHEQLVTYDEEGGGEMDTTSYDVSVLNSVRRGGAKPPRPALDARPSLYAQVQKPPRHAPGAHGGPGEMAAMIEVKKDEADHDGDGPPYDTLHIYGYEGSESIAESLSSLGTDSSDSDVDYDFLNDWGPRFKMLAELYGSDPREELLY
Regarding B1, the binding result in test [3] is listed as “binds”.

B2: endogenous Necl-4 (protein, UniProt Q8NFZ8 21-388)
chain: T1 sequence with T3A, V135T, G151S, V177I, A274S, G357S
On to B2, for which the binding result in test [3] is “binds”.
